Several values for one entry are separate records, joined by “and”; a condition that tells them apart may be missing. Identical values can stand only once.
Experiment: Treatment trials: boric acid equivalent content (BAE) of treated timber by titration
Parameters: species or system Pinus radiata
Details: Trial 4

## CCCCCCCCCCCCCCCCOB(OCCCC)OCCCCCCCCCCCCCCCC [di hexadecanyl,n-butyl borate]
  BAE concentration in timber by titration: 0.15 % m/m and 0.096 % m/m

Reference: patent publication US20090069271A1, “WOOD TREATMENT” (priority 2005, published 2009)
